The record followed here is PMC5824958.

Results are given in words; binding and its absence hold for the method and conditions named. Binding seen in cells or lysates may run through a third protein. Here binding means that the protein was enriched with, or labelled near, the bait; the list need not be complete.

The assay concerns the target T1, BRI2 (integral membrane protein 2B) (rat (endogenous in brain)) (UniProt Q5XIE8).
T1 sequence: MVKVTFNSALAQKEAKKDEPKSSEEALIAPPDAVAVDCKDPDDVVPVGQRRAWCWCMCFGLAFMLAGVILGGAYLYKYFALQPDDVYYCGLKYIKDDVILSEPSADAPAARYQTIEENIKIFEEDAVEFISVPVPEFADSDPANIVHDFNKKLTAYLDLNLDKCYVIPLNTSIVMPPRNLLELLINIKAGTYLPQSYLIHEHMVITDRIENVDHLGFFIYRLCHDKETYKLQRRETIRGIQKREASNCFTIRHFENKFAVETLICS
Nature of the assay: affinity purification with mass spectrometry; mouse anti-BRI2 antibody (N-terminal region) on Dynabeads Protein G; pre-cleared rat cerebral cortex, hippocampus and cerebellum lysates (50 mM Tris-HCl pH 8.0, 120 mM NaCl, 4% CHAPS), overnight at 4 °C; co-precipitated proteins identified by nano-HPLC-MS/MS; hits absent from the two mock IPs or with a PSM ratio >= 2.0.

B1: Zinc transporter 3 (protein, UniProt Q6QIX3 1-388)
chain: MEPSPASGGSETTRLVSPRDRSSAGGGLRLKSLFTEPSEPLPEGPKLEGMAFHHCHKNRVSQSGLSPERAQARRQLYAACVVCFIFMAGEVVGGYLAHSLAIMTDAAHLLADIGSMMASLFSLWLSTRPATRTMTFGWHRSETLGALASVVSLWIVTGILLYLAFLRLLHSDYHIEAGAMLLTASIAVCANMIMAFVLHQTGAPHSHGPRGAEYAPLEEGHGHPLSLGNTSVRAAFVHVLGDLLQSLGVLAASILIYFKPQYKVADPISTFLFSICALGSTAPTLRDVLLVLMEGAPRSVEFEPVRDTLLSVPGVRATHDLHLWALTLTYHVASAHLAIDSTADPEAILAEASSRLYSRFGFSSCTLQVEKYRSEMAHCLRCREPPKA
B1: the binding result was “binds”.

B2: Clathrin coat assembly protein AP180 (protein, UniProt Q05140 1-915)
chain: MSGQTLTDRIAAAQYSVTGSAVARAVCKATTHEVMGPKKKHLDYLIQATNETNVNIPQMADTLFERATNSSWVVVFKALVTTHHLMVHGNERFIQYLASRNTLFNLSNFLDKSGSHGYDMSTFIRRYSRYLNEKAFSYRQMAFDFARVKKGADGVMRTMVPEKLLKSMPILQGQIDALLEFDVHPNELTNGVINAAFMLLFKDLIKLFACYNDGVINLLEKFFEMKKGQCKDALEIYKRFLTRMTRVSEFLKVADEVGIDKGDIPDLTQAPSSLMETLEQHLNTLEGKKPGNNEGSGAPSPLSKSSPATTVTSPNSTPAKTIDTSPPVDIFATASAAAPVSSAKPSSDLLDLQPDFSGARAGAAAPVPPPTGGATAWGDLLGEDSLAALSSVPSEAPISDPFAPEPSPPTTTTEPASASASATTAVTAATTEVDLFGDAFAASPGEAPAASEGATAPATPAPVAAALDACSGNDPFAPSEGSAEAAPELDLFAMKPPETSAPVVTPTASTAPPVPATAPSPAPTAVAATAATTTAAAAATTTATTSAAAATTAAAPPALDIFGDLFDSAPEVAAASKPDVAPSIDLFGTDAFSSPPRGASPVPESSLTADLLSGSGFHCAEDDRHVPLFFTAVDAFAAPSPASTASPAKAESSGVIDLFGDAFGSSASETQPAPQAVSSSSASADLLAGFGGSFMAPSTTPVTPAQNNLLQPNFEAAFGTTPSTSSSSSFDPSGDLLMPTMAPSGQPAPVSMVPPSPAMSASKGLGSDLDSSLASLVGNLGISGTTSKKGDLQWNAGEKKLTGGANWQPKVTPATWSAGVPPQGTVPPTSSVPPGAGAPSVGQPGAGYGMPPAGTGMTMMPQQPVMFAQPMMRPPFGAAAVPGTQLSPSPTPATQSPKKPPAKDPLADLNIKDFL
Turning to B2, the binding entry was “binds”.

B3: Alpha-internexin (protein, UniProt P23565 1-505)
chain: MSFGSEHYLCSASSYRKVFGDGSRLSARLSGPGASGSFRSQSLSRSNVASTAACSSASSLGLGLAYRRLPASDGLDLSQAAARTNEYKIIRTNEKEQLQGLNDRFAVFIEKVHQLETQNRALEAELAALRQRHAEPSRVGELFQRELRELRAQLEEASSARAQALLERDGLAEEVQRLRARCEEESRGREGAERALKAQQRDVDGATLARLDLEKKVESLLDELAFVRQVHDEEVAELLATLQASSQAAAEVDVAVAKPDLTSALREIRAQYESLAAKNLQSAEEWYKSKFANLNEQAARSTEAIRASREEIHEYRRQLQARTIEIEGLRGANESLERQILELEERHSAEVAGYQDSIGQLESDLRNTKSEMARHLREYQDLLNVKMALDIEIAAYRKLLEGEETRFSTSGLSISGLNPLPNPSYLLPPRILSSTTSKVSSAGLSLKKEEEEEEEEEEGASKEVTKKTSKVGESFEETLEETVVSTKKTEKSTIEEITTSSSQKM
Regarding B3, the binding result is “binds”.

B4: Contactin-1 (protein, UniProt Q63198 21-1001)
chain: EFTWHRRYGHGVSEEDKGFGPIFEEQPINTIYPEESLEGKVSLNCRARASPFPVYKWRMNNGDVDLTNDRYSMVGGNLVINNPDKQKDAGIYYCLASNNYGMVRSTEATLSFGYLDPFPPEDRPEVKVKEGKGMVLLCDPPYHFPDDLSYRWLLNEFPVFITMDKRRFVSQTNGNLYIANVESSDRGNYSCFVSSPSITKSVFSKFIPLIPIPERTTKPYPADIVVQFKDIYTMMGQNVTLECFALGNPVPDIRWRKVLEPMPTTAEISTSGAVLKIFNIQLEDEGLYECEAENIRGKDKHQARIYVQAFPEWVEHINDTEVDIGSDLYWPCVATGKPIPTIRWLKNGYAYHKGELRLYDVTFENAGMYQCIAENAYGTIYANAELKILALAPTFEMNPMKKKILAAKGGRVIIECKPKAAPKPKFSWSKGTEWLVNSSRILIWEDGSLEINNITRNDGGIYTCFAENNRGKANSTGTLVITNPTRIILAPINADITVGENATMQCAASFDPSLDLTFVWSFNGYVIDFNKEITNIHYQRNFMLDANGELLIRNAQLKHAGRYTCTAQTIVDNSSASADLVVRGPPGPPGGLRIEDIRATSVALTWSRGSDNHSPISKYTIQTKTILSDDWKDAKTDPPIIEGNMESAKAVDLIPWMEYEFRVVATNTLGTGEPSIPSNRIKTDGAAPNVAPSDVGGGGGTNRELTITWAPLSREYHYGNNFGYIVAFKPFDGEEWKKVTVTNPDTGRYVHKDETMTPSTAFQVKVKAFNNKGDGPYSLIAVINSAQDAPSEAPTEVGVKVLSSSEISVHWKHVLEKIVESYQIRYWAGHDKEAAAHRVQVTSQEYSARLENLLPDTQYFIEVGACNSAGCGPSSDVIETFTRKAPPSQPPRIISSVRSGSRYIITWDHVVALSNESTVTGYKILYRPDGQHDGKLFSTHKHSIEVPIPRDGEYVVEVRAHSDGGDGVVSQVKISGVSTLS
Turning to B4, the binding entry is recorded as “binds”.

B5: Cell adhesion molecule 4 (protein, UniProt Q1WIM1 21-388)
chain: PGTAQEVQTENVTVAEGGVAEITCRLHQYDGSIVVIQNPARQTLFFNGTRALKDERFQLEEFSPRRVRIRLSDARLEDEGGYFCQLYTEDTHHQIATLTVLVAPENPVVEVREQAVEGGEVELSCLVPRSRPAAVLRWYRDRKELKGVSSGQENGKVWSVASTVRFRVDRKDDGGIVICEAQNQALPSGHSKQTQYVLDVQYSPTARIHASQAVVREGDTLVLTCAVTGNPRPNQIRWNRGNESLPERAEALGETLTLPGLVSADNGTYTCEAANKHGHARALYVLVVYDPGAVVEAQTSVPYAIVGGILALLVFLIICVLVGMVWCSVRQKGSYLTHEASGLDEQGEAREAFLNGSDGHKRKEEFFI
B5: the binding result is given as “binds”.

B6: CaM kinase-like vesicle-associated protein (protein, UniProt Q63092 1-504)
chain: MPFGCVTLGDKKNYNQPSEVTDRYDLGQVVKTEEFCEIFRAKDKTTGKLHTCKKFQKRDGRKVRKAAKNEIGILKMVKHPNILQLVDVFVTRKEYFIFLELATGREVFDWILDQGYYSERDTSNVVRQVLEAVAYLHSLKIVHRNLKLENLVYYNRLKNSKIVISDFHLAKLENGLIKEPCGTPEYLAPEVVGRQRYGRPVDCWAIGVIMYILLSGNPPFYEEVEEDDYENHDKNLFRKILAGDYEFDSPYWDDISQAAKDLVTRLMEVEQDQRITAEEAISHEWISGNAASDKNIKDGVCAQIEKNFARAKWKKAVRVTTLMKRLRAPEQSGTAATSDAATPGAAGGAVAAAAGGAAPASGASATVGTGGDAGCAAKSDDMASADRSATPATDGSATPATDGSVTPATDGSITPATDGSVTPATDRSATPATDGRATPATEESTVPAAQSSAAPAAKAAATPEPAVAQPDSTALEGATGQAPPSSKGEEATGCAQESQRVETS
Take B6: the binding entry is given as “binds”.
